Results published in PMC9910797.
Results are given in words; binding and its absence hold for the method and conditions named. Some results given as binding are weak or reduced against the parent protein; the word gives no strength.

Experiments:
[1] = target: T1, BRC-1 (C. elegans BRCA1 ortholog), full length, wild type (C. elegans) (UniProt B6VQ60); test: two-hybrid; BRC-1 (wild type or mutant) in pBridge in Y2HGold mated with BRD-1 in pACT2.2 in Y187; his3 reporter, serial dilutions of diploids on -His -Trp -Leu against -Trp -Leu solid media
T1 sequence: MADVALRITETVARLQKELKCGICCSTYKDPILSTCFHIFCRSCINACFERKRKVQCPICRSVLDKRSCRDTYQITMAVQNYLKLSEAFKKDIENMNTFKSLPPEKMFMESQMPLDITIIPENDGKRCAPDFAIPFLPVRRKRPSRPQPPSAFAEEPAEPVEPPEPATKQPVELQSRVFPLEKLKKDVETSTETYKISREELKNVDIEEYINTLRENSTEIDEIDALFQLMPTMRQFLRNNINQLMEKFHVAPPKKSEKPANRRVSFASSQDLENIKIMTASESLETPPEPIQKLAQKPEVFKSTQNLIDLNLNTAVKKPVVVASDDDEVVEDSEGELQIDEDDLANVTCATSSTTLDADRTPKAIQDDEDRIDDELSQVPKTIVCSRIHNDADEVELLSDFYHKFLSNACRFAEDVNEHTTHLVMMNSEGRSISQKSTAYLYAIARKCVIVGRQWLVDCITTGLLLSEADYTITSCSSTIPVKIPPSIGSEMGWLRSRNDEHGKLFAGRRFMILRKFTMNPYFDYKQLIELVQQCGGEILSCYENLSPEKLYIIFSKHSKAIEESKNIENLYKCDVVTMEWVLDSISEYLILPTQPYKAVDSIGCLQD

[2] = target: T2, BRC-1^triA (I23A, I59A, R61A), full length (C. elegans) (UniProt B6VQ60); test: as above
T2 sequence: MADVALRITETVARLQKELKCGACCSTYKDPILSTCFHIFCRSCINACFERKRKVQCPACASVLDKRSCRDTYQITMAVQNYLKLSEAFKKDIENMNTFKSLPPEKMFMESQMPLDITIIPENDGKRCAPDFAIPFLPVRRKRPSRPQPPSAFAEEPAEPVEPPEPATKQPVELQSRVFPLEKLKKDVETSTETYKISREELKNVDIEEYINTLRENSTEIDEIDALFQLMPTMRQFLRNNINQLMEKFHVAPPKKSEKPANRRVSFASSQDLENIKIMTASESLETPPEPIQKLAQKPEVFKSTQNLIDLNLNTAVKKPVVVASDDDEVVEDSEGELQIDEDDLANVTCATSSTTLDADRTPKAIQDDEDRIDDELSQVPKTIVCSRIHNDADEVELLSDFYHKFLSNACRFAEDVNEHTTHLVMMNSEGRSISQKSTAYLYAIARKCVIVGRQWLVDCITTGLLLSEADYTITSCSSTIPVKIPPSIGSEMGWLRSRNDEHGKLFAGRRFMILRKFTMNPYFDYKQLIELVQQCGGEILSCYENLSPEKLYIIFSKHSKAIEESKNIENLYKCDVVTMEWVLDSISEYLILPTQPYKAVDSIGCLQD

B1: BRD-1 (C. elegans BARD1 ortholog), full length (protein, UniProt Q21209 1-702)
chain: MFENTKKALETFRTAIECVKCKKPRGDLQYLGSSCKHAYCWECIATFQQKPSGKRSSVARHMCPSCAFPLDTSKITEAHMLKTCFDTLSELNDLLQKVGTTSLTQAEFACTQNIFNKEKTPADAVEKFLETQAHMPDEMGQLGEEDDDLMCKDENRENSNSPELDIFHDYSKEASPTRNSTKRPSTVSVHERKPKRSSILKTSVKNEPAAPVVDLFASQVPQRTHQNDLLTPFIERRSTAPAATGVATYAQAFGSSSNPVKAEIIEEDIFSKAIPLTKRQASMSASAKKQPKLEPEEPEEVPSTSRSRKNSIKSDKIERRSQSPMSFGEKSMSVKSEQRRSSYGTRRGEAVLVNSIRNNRIPQLRSAVEAGTCVNEKEDGKTPLYVAVENSSLEAVKILVEAGAVINASCGSTLETTLHEAVRRQNTQIVEYLLSKGASIKIRNIAGKTVEEMAKSDPKIRKIIEKFKTEQRVLQPVVAPPKSRLHFVQLIDEKMLTESEKRKLPGKINIVPADMDSPTHVVVTVDLKTRVLNINKEHIGEILKAIIKSGMIVSRDWLRACIIDPSKVDDDRSYMVQKVRWMEGEVFENTIEQWKKTITKMQPKLFAGCKFFIPKPKYNFLDRPALFEIIRSAGGQAAAREPIIDEKDPPPYHNANLKPNFVLYSLTHDIGDKFRDCTKYNLVSEQWLIEAILGCSITTPPH
With B1 the binding [1] was “binds” and the binding [2] was “binds”.
